Experimental data as given in patent US4725687A (priority 1986, dated 1988).
At least one structure is not confirmed: it was looked up by name or label, or the drawing left a doubt.

What was measured:
[1] = system: L1210 cells; assay: Mediated transport (influx, efflux) in L1210 cells; type: cell-based; settings: n = 3-4, SE
Description: (a) Methods are described by Sirotnak et al, "Molecular Actions and
Targets for Cancer Chemotherapy Agents", Sartorelli, A.C. Ed., Academic
Press., New York, pps. 349-383 (1981); Sirotnak et al, Biochem.
Pharmacol., Vol. 29, p. 3293 (1980); and Sirotnak et al, Cancer Res., Vol

[2] = system: L1210 cells; assay: Rate of net polyglutamate formation in L1210 cells; type: cell-based

Nc1nc(N)c2nc(CNc3ccc(C(=O)N[C@@H](CCC(=O)O)C(=O)O)cc3)cnc2n1 [AMT, aminopterin, reference compound]
Mediated Transport efflux k + SE ([1]; efflux): 0.31 ± 0.04 min⁻¹
Km ([1]; influx): 1.2 ± 0.3 µM
order of initial rates of polyglutamate accumulation ([2]; comparable rates of drug entry): AMT>5-Me-5-dAMT>5-dAMT>MTX>5-dMTX>5-Me5-dMTX
Rate of net polyglutamate formation ([2]; conditions of comparable rates of drug entry): 165 pM/min/g dry wt
